Measured values from PubChem BioAssay AID651640 (Broad Institute, 2012).
Among all 350,000 compounds or so, about 6,000 (1.7%) were called active. The shares of active, inactive and inconclusive entries below differ from those in the screen. Rule as the data show it: active = CPE inhibition above about 20% (passing the limit was not always enough); inconclusive = no clear call, values can overlap the other calls; tested in BHK-21 cells.

test: protection of cells from dengue 2 killing – plate reader, single concentration, primary screen (AID 651640); settings: DENV2-infected cells, cytopathic effect rescue, at 9.99 µM, hits give high values;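 also: 0% = median of neutral control wells and 100% = median of positive control wells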

**Q.** With `C[C@H]1CN([C@@H](C)CO)C(=O)Cc2cc(NC(=O)NC3CCCCC3)ccc2O[C@@H]1CN(C)C(=O)NC1CCCCC1` as the compound, how does the CPE inhibition read?
**A.** inactive: -2.35%

**Q.** Which CPE inhibition does the source give for `Cc1ccc(C)c(NC(=O)CN2C(=O)C3CC=CCC3C2=O)c1` (stereo unspecified) here?
**A.** active: 44.8%

**Q.** With `Cc1noc(C)c1NC(=O)N[C@H]1CC[C@H](CCNC(=O)C2CCCC2)O[C@@H]1CO` as the compound, how does the CPE inhibition read?
**A.** active: 20.3%

**Q.** With `O=C(Nc1ccccc1F)N1C[C@@H]2[C@H](c3ccccc31)[C@@H](CO)N2C(=O)Cc1ccccc1` as the compound, how does the CPE inhibition read?
**A.** inactive: -3.88%

**Q.** For `CCN(C[C@@H]1[C@@H](c2ccccc2)[C@@H](CO)N1C(=O)C1CC1)C(=O)NC1CCCC1`, which CPE inhibition is on record?
**A.** inactive: 6.43%

**Q.** For `O=C(C[C@H]1CC[C@@H]2[C@H](COC[C@@H](O)CN2C(=O)C2CC2)O1)NCc1ccncc1`, which CPE inhibition is on record?
**A.** inactive: 6.21%

**Q.** Which CPE inhibition does the source give for `CCN(CC(=O)Nc1c(F)cccc1F)C(=O)c1ccc2c(c1)OCCO2` here?
**A.** inconclusive: 43.7%

**Q.** For `Cc1noc(C)c1NC(=O)N(C)C[C@H]1OCCCC[C@H](C)Oc2ccc(NS(=O)(=O)c3cn(C)cn3)cc2C(=O)N([C@@H](C)CO)C[C@H]1C`, which CPE inhibition is on record?
**A.** inconclusive: 61.1%

**Q.** Which CPE inhibition does the source give for `CC1C=CCC2C(=O)N(c3ccc(OC(=O)c4cccs4)cc3)C(=O)C12` (stereo unspecified) here?
**A.** inconclusive: 25.7%

**Q.** Which CPE inhibition does the source give for `COc1c(C)cc(C(O)c2ncc(-c3ccc4ccccc4c3)[nH]2)cc1C` (stereo unspecified) here?
**A.** inconclusive: 51.8%

**Q.** Which CPE inhibition does the source give for `CCN(CC)S(=O)(=O)c1ccc2c(c1)N(CC(=O)NCCCN1CC(C)CC(C)C1)C(=O)CO2` (stereo unspecified) here?
**A.** inconclusive: 23.1%

**Q.** Which CPE inhibition does the source give for `COc1ccccc1NC(=O)CCn1c(=S)oc2ccccc21` here?
**A.** inconclusive: 37.6%

**Q.** With `COc1ccc2c3c([nH]c2c1)[C@@H](CO)N(C)CC31CCN(C(=O)NC(C)C)CC1` as the compound, how does the CPE inhibition read?
**A.** inconclusive: 65.5%

**Q.** With `CCCNC(=O)N(C)C[C@H]1Oc2ncc(C#CCc3ccccc3)cc2C(=O)N([C@@H](C)CO)C[C@@H]1C` as the compound, how does the CPE inhibition read?
**A.** inconclusive: 44%

**Q.** Which CPE inhibition does the source give for `COC(=O)C1=C(C)N(Cc2cccc(C(F)(F)F)c2)C(=NCc2ccc3c(c2)OCO3)NC1c1cccc(F)c1` (stereo unspecified) here?
**A.** inconclusive: 37.5%

**Q.** For `CS(=O)(=O)Nc1ccc(C(=O)Nc2ccc(S(=O)(=O)N3CCCCC3)cc2)cc1`, which CPE inhibition is on record?
**A.** inconclusive: 59.2%

**Q.** Which CPE inhibition does the source give for `CCc1c(O)nc(SCC(=O)Nc2cc(C)on2)n(-c2ccccc2)c1=O` here?
**A.** inconclusive: 39.3%

**Q.** For `CCC(=O)N1CC(=O)N2[C@H](C1)[C@@H](c1ccc(-c3ccccc3F)cc1)[C@@H]2CO`, which CPE inhibition is on record?
**A.** inactive: 9.06%

**Q.** Which CPE inhibition does the source give for `Cc1cc(C)c(OCC(=O)Nc2ccc(N3CCOCC3)cc2)c(Br)c1` here?
**A.** inconclusive: 53.2%

**Q.** With `Cc1cccc(NC(=O)COC(=O)c2nn(-c3ccccc3C(F)(F)F)cc2O)c1C` as the compound, how does the CPE inhibition read?
**A.** inconclusive: 36.4%

**Q.** Which CPE inhibition does the source give for `CCCCc1cc(=O)oc2cc(C)cc(OC(C)C(=O)NCc3ccccn3)c12` (stereo unspecified) here?
**A.** inconclusive: 23.1%

**Q.** For `CN(C)c1ccc(-c2ccnc3c2CC(C)(C(=O)Nc2cccc(Oc4ccccc4)c2)O3)cc1` (stereo unspecified), which CPE inhibition is on record?
**A.** inconclusive: 25%

**Q.** Which CPE inhibition does the source give for `CN(C(=O)COC(=O)Cn1c(C(F)(F)F)nc2ccccc21)c1c(N)n(Cc2ccccc2)c(=O)[nH]c1=O` here?
**A.** inconclusive: 39.1%

**Q.** Which CPE inhibition does the source give for `CC1CCN(CC(=O)Nc2ccc(C(=O)N3CCCCC3)cc2)CC1` here?
**A.** inconclusive: 20.5%

**Q.** For `COc1cc2c(cc1OC)CN(C(=O)c1ccc(OC)c(S(=O)(=O)N3CCCC3)c1)CC2`, which CPE inhibition is on record?
**A.** inconclusive: 20.9%

**Q.** Which CPE inhibition does the source give for `COc1ccc(-c2ccc([C@H]3[C@@H](CO)N4CCCCN(CC5CCOCC5)C[C@@H]34)cc2)cc1` here?
**A.** active: 24.1%

**Q.** For `C=CC(COCc1ccccc1)N(CC(=O)OC)S(=O)(=O)c1cc(Br)ccc1OC` (stereo unspecified), which CPE inhibition is on record?
**A.** inconclusive: 45.5%

**Q.** For `Nc1cc([N+](=O)[O-])ccc1Nc1ccc(O)cc1`, which CPE inhibition is on record?
**A.** inactive: -4.13%

**Q.** Which CPE inhibition does the source give for `CNC[C@@H]1Oc2ccc(NS(=O)(=O)c3ccc(F)cc3)cc2CC(=O)N([C@@H](C)CO)C[C@H]1C` here?
**A.** inconclusive: 21.4%

**Q.** Which CPE inhibition does the source give for `COc1ccc2c3c([nH]c2c1)[C@H](CO)N(C(=O)c1ccc(F)cc1)CC31CN(C(=O)NC(C)C)C1` here?
**A.** inactive: 6.92%

**Q.** Which CPE inhibition does the source give for `COc1ccc(OC)c(CN2CCN(C(=O)c3ccc(C)c(S(=O)(=O)Nc4ccccc4OC)c3)CC2)c1` here?
**A.** inactive: 5.37%

**Q.** Which CPE inhibition does the source give for `COc1ccccc1N1C(=O)C2CCC(c3ccccc3)CC2C1=O` (stereo unspecified) here?
**A.** active: 23.3%

**Q.** For `CO[C@@H]1CN(C)C(=O)c2cc(NC(=O)NC(C)C)ccc2OC[C@@H](C)N(C)C[C@H]1C`, which CPE inhibition is on record?
**A.** inconclusive: 28.6%

**Q.** Which CPE inhibition does the source give for `Cc1cccc(NC(=O)CN(C)S(=O)(=O)c2cnc[nH]2)c1C` here?
**A.** inconclusive: 43.6%

**Q.** With `COCC#Cc1ccc2c(c1)O[C@@H](CN(C)Cc1ccc3c(c1)OCO3)[C@@H](C)CN([C@@H](C)CO)S2(=O)=O` as the compound, how does the CPE inhibition read?
**A.** inconclusive: 20.1%

**Q.** With `CCc1nc2ccc(C(=O)NCCOc3ccc(OC)cc3)cn2c1N(CC)Cc1cccc(Br)c1` as the compound, how does the CPE inhibition read?
**A.** inconclusive: 20.1%
